From PMC4661529
Results are given in words; binding and its absence hold for the method and conditions named. For part of these data: In cells and extracts the contact can be indirect. Some binding calls cover weakened binding; strength is not graded here. Where a sequence is shown, tags or fusion partners need not be part of it.

Amino acid sequences for entries named in this document (tags omitted). A change or cut given only in a name is not applied to a line headed by its entry.
UniProt P17302: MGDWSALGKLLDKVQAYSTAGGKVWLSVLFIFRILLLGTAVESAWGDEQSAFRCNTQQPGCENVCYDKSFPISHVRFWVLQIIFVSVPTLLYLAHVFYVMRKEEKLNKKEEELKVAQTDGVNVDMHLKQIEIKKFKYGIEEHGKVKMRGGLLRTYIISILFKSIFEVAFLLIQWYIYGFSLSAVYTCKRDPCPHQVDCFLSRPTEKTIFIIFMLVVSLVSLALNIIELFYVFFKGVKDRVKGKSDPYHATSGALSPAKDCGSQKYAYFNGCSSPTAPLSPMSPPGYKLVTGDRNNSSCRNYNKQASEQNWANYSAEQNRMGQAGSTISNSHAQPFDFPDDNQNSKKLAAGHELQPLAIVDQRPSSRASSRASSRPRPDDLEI
UniProt Q13283: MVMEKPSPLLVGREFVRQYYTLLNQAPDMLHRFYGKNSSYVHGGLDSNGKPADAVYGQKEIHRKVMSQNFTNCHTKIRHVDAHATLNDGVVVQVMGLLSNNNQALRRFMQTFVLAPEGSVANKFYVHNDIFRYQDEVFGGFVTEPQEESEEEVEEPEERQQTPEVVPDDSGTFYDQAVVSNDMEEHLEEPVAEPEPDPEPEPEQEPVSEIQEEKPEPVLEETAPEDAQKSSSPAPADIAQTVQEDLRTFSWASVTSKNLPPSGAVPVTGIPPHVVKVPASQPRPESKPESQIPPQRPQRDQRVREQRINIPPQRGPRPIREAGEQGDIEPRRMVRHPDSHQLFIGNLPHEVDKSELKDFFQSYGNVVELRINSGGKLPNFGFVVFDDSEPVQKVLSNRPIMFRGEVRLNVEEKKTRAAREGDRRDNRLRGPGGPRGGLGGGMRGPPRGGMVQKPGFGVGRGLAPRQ
UniProt P67809: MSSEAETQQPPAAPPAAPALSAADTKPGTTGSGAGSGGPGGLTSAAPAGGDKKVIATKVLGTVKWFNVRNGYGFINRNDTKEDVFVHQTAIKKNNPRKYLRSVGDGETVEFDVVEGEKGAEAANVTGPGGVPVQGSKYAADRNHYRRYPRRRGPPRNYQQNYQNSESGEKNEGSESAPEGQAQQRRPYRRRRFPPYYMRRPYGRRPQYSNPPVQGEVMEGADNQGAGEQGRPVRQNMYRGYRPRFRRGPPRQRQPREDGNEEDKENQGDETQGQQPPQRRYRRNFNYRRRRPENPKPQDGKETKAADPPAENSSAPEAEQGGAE

Legend:
DeltaCx43-Tau (human) = DeltaCx43-Tau (human) (UniProt P17302); assay: microtubule bench (prey brought to microtubules by a bait fused to Tau, fluorescence microscopy); NRK cells expressing DeltaCx43-Tau as bait and a GFP-labelled prey; fixed cells stained with anti-Tau antibody; line profiles
Lin28-GFP (human) = biological target: T1, Lin28-GFP (human) (UniProt Q9H9Z2); assay: co-IP; whole cell lysate of transfected HeLa cells (25 mM Tris, 150 mM NaCl, 1 mM EDTA, 1% Triton-X, pH 7.4); anti-GFP antibody and Dynabeads Protein G overnight at 4 °C; endogenous proteins detected by western blot
T1 sequence: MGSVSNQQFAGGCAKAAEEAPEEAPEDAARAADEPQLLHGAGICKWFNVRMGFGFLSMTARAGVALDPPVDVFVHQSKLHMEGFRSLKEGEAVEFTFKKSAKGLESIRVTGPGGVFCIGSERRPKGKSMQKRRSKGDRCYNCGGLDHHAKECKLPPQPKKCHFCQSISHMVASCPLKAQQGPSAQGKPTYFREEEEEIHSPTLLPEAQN

G3BP1-RFP-Tau (human) = G3BP1-RFP-Tau (human) (UniProt Q13283); assay: microtubule bench (prey brought to microtubules by a bait fused to Tau, fluorescence microscopy); HeLa cells co-transfected with RFP-Tau-fused bait and GFP-labelled prey; fixed cells (methanol/PFA) and living cells (videomicroscopy), also during microtubule regrowth after nocodazole washout; colocalization scored by the spearman coefficient
YB-1-RFP-Tau (human) = YB-1-RFP-Tau (human) (UniProt P67809); assay: as above
Lin28-RFP-Tau (human) = biological target: T2, Lin28-RFP-Tau (human) (UniProt Q9H9Z2); assay: as above
T2 sequence: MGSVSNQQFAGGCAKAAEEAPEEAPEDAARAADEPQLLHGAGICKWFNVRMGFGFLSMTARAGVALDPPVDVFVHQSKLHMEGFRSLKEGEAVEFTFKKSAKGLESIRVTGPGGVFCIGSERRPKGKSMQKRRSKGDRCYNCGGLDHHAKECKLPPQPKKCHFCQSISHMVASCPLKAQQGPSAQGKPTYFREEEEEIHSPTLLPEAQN

**Q.** How did the binding (DeltaCx43-Tau (human)) turn out when Cx43-GFP (from UniProt P17302 1-382) was run?
**A.** binds

**Q.** Which binding (Lin28-GFP (human)) does the source give for “endogenous YB-1 (from UniProt P67809 1-324)” here?
**A.** binds

B1: Lin28-GFP (protein, UniProt Q9H9Z2 1-209)
chain: MGSVSNQQFAGGCAKAAEEAPEEAPEDAARAADEPQLLHGAGICKWFNVRMGFGFLSMTARAGVALDPPVDVFVHQSKLHMEGFRSLKEGEAVEFTFKKSAKGLESIRVTGPGGVFCIGSERRPKGKSMQKRRSKGDRCYNCGGLDHHAKECKLPPQPKKCHFCQSISHMVASCPLKAQQGPSAQGKPTYFREEEEEIHSPTLLPEAQN
**Q.** With B1 as the molecule, how does the binding (G3BP1-RFP-Tau (human)) read?
**A.** no binding

**Q.** And the binding (YB-1-RFP-Tau (human))?
**A.** binds

**Q.** What about the binding (Lin28-RFP-Tau (human)) of the same molecule?
**A.** binds

B2: CLDN10-GFP (protein, UniProt P78369 1-228)
chain: MASTASEIIAFMVSISGWVLVSSTLPTDYWKVSTIDGTVITTATYWANLWKACVTDSTGVSNCKDFPSMLALDGYIQACRGLMIAAVSLGFFGSIFALFGMKCTKVGGSDKAKAKIACLAGIVFILSGLCSMTGCSLYANKITTEFFDPLFVEQKYELGAALFIGWAGASLCIIGGVIFCFSISDNNKTPRYTYNGATSVMSSRTKYHGGEDFKTTNPSKQFDKNAYV
**Q.** B2 was tested. Which binding (DeltaCx43-Tau (human)) did it give?
**A.** no binding
